From patent US10688099B2, “Methods for modulating the amount of RNA transcripts” (PTC Therapeutics, Inc., priority 2013, dated 2020)
Further values from the same series stand in other lists.

Tested on: RNA isoforms in PNN 1-46 SMA type I patient-derived fibroblasts
Test: RNA Abundance Modulation (RNA isoform abundance, iFPM, HiSeq RNA sequencing)
Type: cell-based, human
Conditions: 3 μM
Procedure: Cells from a cell line of interest are cultured in conditions sufficient to yield the number of cells capable of generating enough RNA for subsequent sequencing steps. Cells from the tested cell line are contacted with a compound described herein.
To culture said cells, they are seeded, at appropriate concentrations in a volume of media in a cell culture container and incubated for 4, 5, 6, 7, 8, 9, 10, or more hours. A concentrated solution of compound in a vehicle (e.g., DMSO) is then added in sufficient volume to result in the intended final concentration of the compound, for example 100 nM, 500 nM, 1 μM, 5 μM, 10 μM, 15 μM, 20 μM, or more. The cells may also be treated with vehicle alone, as a control. A number of replicates of each concentration or control may be made (e.g., 2 replicates). The cells are then incubated at a constant temperature appropriate for cell culture of the particular cell line (e.g., 37° C.) for 6, 12, 18, 24, 48, or more hours. After incubation, the growth medium is removed and the cells are washed with the appropriate buffer (e.g., PBS). Cells are then removed from adherence to the cell culture container by treatment with a solution containing trypsin, and the trypsin subsequently quenched with the appropriate volume of buffer (e.g., DMEM-FBS). The cells are then pelleted with gentle centrifugation (e.g., ≤90×g centrifugal force) and resuspended in a buffer to lyse the cells for extraction of RNA. The cell lysates may then be frozen (e.g., at −80° C.) or, alternately, may immediately be used in a procedure to purify the RNA (e.g. by use of the RNEASY PLUS® minikit). The RNA from cell lysates is eluted in the appropriate volume of buffer (e.g., RNEASE-FREE H2O®). The resulting purified RNA may then be sequenced (e.g., using RNASeq) or analyzed using a human exon array (e.g., by GENECHIP® human exon array) to determine changes in the RNA levels in those cells treated with compound compared to those cells treated only with DMSO. The purified RNA may also be quantified by other methods known in the art.
Using the RNA data obtained from sequencing, exon array, or other methods, a statistical analysis can reveal changes in the RNA levels of compound-treated compared with control. For example, t-test p-values may be calculated for the data obtained through sequencing and exon array methods in order to compare compound-treated cells to those treated with the DMSO control. […] Analysis of the sequencing and exon array data may then also yield predictions about the cause of the aberrant amount of an RNA transcript in the cells (e.g., perturbation of RNA splicing, RNA transcription, or RNA stability). These predictions may be further confirmed by methods known in the art. For example, RT-PCR and RT-qPCR may be used to confirm the change in amount of RNA transcripts for one or more particular transcripts of interest.
Following the methods described above in Example 1, PNN 1-46 SMA type I patient-derived fibroblasts were treated with 300 nM or 3 μM Compounds 774 and 808 in 0.5% DMSO.
700,000 cells were seeded in 10 mL of medium (DMEM plus 10% FBS) in a T-75 flask. Cells were allowed to attach for at least 4 hrs, after which 50 μL of a 200× compound solution (100% DMSO) was added to each well, and the plate was incubated at 37° C. for 24 hrs.
At the end of the incubation period, the supernatant was removed and the cells where washed with PBS. TrypLE (Invitrogen) express solution was added (e.g. 1.5 mL per one T75 flask). The flasks were incubated for 3 to 5 min at 37° C. The trypsin was then quenched, e.g., by adding 10 mL DMEM-FBS.
Next, the cells were pelleted using gentle centrifugation without exceeding 90×g centrifugal force. The supernatant was removed and the cell pellet was re-suspended in 600 μL RLT buffer (the RLT buffer was supplemented with beta-mercaptoethanol according to the RNeasy protocol manual) by pipetting up and down until the pellet was completely dissolved […]

CCc1nc(C)cn2nc(-c3cc(=O)n4cc(C5CCN(C)CC5)cc(C)c4n3)cc12 [Compound 774]
amp FC (x + 1) (FNBP1 BC143513): 1.49
ave Cpd (FNBP1 BC143513): 825 iFPM
FC (x + 1) (FNBP1 BC143514): 0.0091
L2FC (x + 1) (FNBP1 BC143514): −6.774
L2abs (Cpd-DMSO) (FNBP1 BC143514): 6.76
abs (Cpd-DMSO) (FNBP1 BC143514): 108 iFPM
amp FC (x + 1) (FNBP1 BC143514): 109.46
ave Cpd (FNBP1 BC143514): 0 iFPM
FC (x + 1) (FNBP1 BC143515): 0.1056
L2FC (x + 1) (FNBP1 BC143515): −3.243
L2abs (Cpd-DMSO) (FNBP1 BC143515): 7.16
abs (Cpd-DMSO) (FNBP1 BC143515): 143 iFPM
amp FC (x + 1) (FNBP1 BC143515): 9.47
ave Cpd (FNBP1 BC143515): 16 iFPM
FC (x + 1) (FNBP1 NM_015033): 1.3897
L2FC (x + 1) (FNBP1 NM_015033): 0.475
L2abs (Cpd-DMSO) (FNBP1 NM_015033): 6.68
abs (Cpd-DMSO) (FNBP1 NM_015033): 103 iFPM
amp FC (x + 1) (FNBP1 NM_015033): 1.39
ave Cpd (FNBP1 NM_015033): 366 iFPM
FC (x + 1) (FOS AK290907): 0.2145
L2FC (x + 1) (FOS AK290907): −2.221
L2abs (Cpd-DMSO) (FOS AK290907): 7.56
abs (Cpd-DMSO) (FOS AK290907): 189 iFPM
amp FC (x + 1) (FOS AK290907): 4.66
ave Cpd (FOS AK290907): 51 iFPM
FC (x + 1) (FOS AK298659): 0.2853
L2FC (x + 1) (FOS AK298659): −1.809
L2abs (Cpd-DMSO) (FOS AK298659): 4.84
abs (Cpd-DMSO) (FOS AK298659): 29 iFPM
amp FC (x + 1) (FOS AK298659): 3.51
ave Cpd (FOS AK298659): 10 iFPM
FC (x + 1) (FOS NM_005252): 0.1221
L2FC (x + 1) (FOS NM_005252): −3.034
L2abs (Cpd-DMSO) (FOS NM_005252): 11.28
abs (Cpd-DMSO) (FOS NM_005252): 2482 iFPM
amp FC (x + 1) (FOS NM_005252): 8.19
ave Cpd (FOS NM_005252): 344 iFPM
FC (x + 1) (FOSB AK225070): 0.0858
L2FC (x + 1) (FOSB AK225070): −3.543
L2abs (Cpd-DMSO) (FOSB AK225070): 6.13
abs (Cpd-DMSO) (FOSB AK225070): 70 iFPM
amp FC (x + 1) (FOSB AK225070): 11.66
ave Cpd (FOSB AK225070): 6 iFPM
FC (x + 1) (FOSB EU178110): 7.4119
L2FC (x + 1) (FOSB EU178110): 2.890
L2abs (Cpd-DMSO) (FOSB EU178110): 2.68
abs (Cpd-DMSO) (FOSB EU178110): 6 iFPM
amp FC (x + 1) (FOSB EU178110): 7.41
ave Cpd (FOSB EU178110): 6 iFPM
FC (x + 1) (FOSB EU178111): 0.3242
L2FC (x + 1) (FOSB EU178111): −1.625
L2abs (Cpd-DMSO) (FOSB EU178111): 4.81
abs (Cpd-DMSO) (FOSB EU178111): 28 iFPM
amp FC (x + 1) (FOSB EU178111): 3.08
ave Cpd (FOSB EU178111): 12 iFPM
FC (x + 1) (FOSB EU178112): 0.0339
L2FC (x + 1) (FOSB EU178112): −4.881
L2abs (Cpd-DMSO) (FOSB EU178112): 4.83
abs (Cpd-DMSO) (FOSB EU178112): 28 iFPM
amp FC (x + 1) (FOSB EU178112): 29.48
ave Cpd (FOSB EU178112): 0 iFPM
FC (x + 1) (FOSB EU178113): 1.0000
L2FC (x + 1) (FOSB EU178113): 0.000
L2abs (Cpd-DMSO) (FOSB EU178113): 0
abs (Cpd-DMSO) (FOSB EU178113): 0 iFPM
amp FC (x + 1) (FOSB EU178113): 1.00
ave Cpd (FOSB EU178113): 0 iFPM
FC (x + 1) (FOSB EU178114): 0.4759
L2FC (x + 1) (FOSB EU178114): −1.071
L2abs (Cpd-DMSO) (FOSB EU178114): 2.12
abs (Cpd-DMSO) (FOSB EU178114): 4 iFPM
amp FC (x + 1) (FOSB EU178114): 2.10
ave Cpd (FOSB EU178114): 3 iFPM
FC (x + 1) (FOSB EU178115): 0.1144
L2FC (x + 1) (FOSB EU178115): −3.128
L2abs (Cpd-DMSO) (FOSB EU178115): 6.73
abs (Cpd-DMSO) (FOSB EU178115): 106 iFPM
amp FC (x + 1) (FOSB EU178115): 8.74
ave Cpd (FOSB EU178115): 13 iFPM
FC (x + 1) (FOSB EU178116): 0.1191
L2FC (x + 1) (FOSB EU178116): −3.070
L2abs (Cpd-DMSO) (FOSB EU178116): 3.87
abs (Cpd-DMSO) (FOSB EU178116): 15 iFPM
amp FC (x + 1) (FOSB EU178116): 8.40
ave Cpd (FOSB EU178116): 1 iFPM
FC (x + 1) (FOSB NM_006732): 0.1243
L2FC (x + 1) (FOSB NM_006732): −3.008
L2abs (Cpd-DMSO) (FOSB NM_006732): 4.80
abs (Cpd-DMSO) (FOSB NM_006732): 28 iFPM
amp FC (x + 1) (FOSB NM_006732): 8.04
ave Cpd (FOSB NM_006732): 3 iFPM
FC (x + 1) (FOSB NM_001114171): 0.4559
L2FC (x + 1) (FOSB NM_001114171): −1.133
L2abs (Cpd-DMSO) (FOSB NM_001114171): 2.95
abs (Cpd-DMSO) (FOSB NM_001114171): 8 iFPM
amp FC (x + 1) (FOSB NM_001114171): 2.19
ave Cpd (FOSB NM_001114171): 5 iFPM
FC (x + 1) (FOXM1 NM_021953): 0.2466
L2FC (x + 1) (FOXM1 NM_021953): −2.020
L2abs (Cpd-DMSO) (FOXM1 NM_021953): 11.89
abs (Cpd-DMSO) (FOXM1 NM_021953): 3804 iFPM
amp FC (x + 1) (FOXM1 NM_021953): 4.05
ave Cpd (FOXM1 NM_021953): 1244 iFPM
FC (x + 1) (FOXM1 NM_202002): 7.8710
L2FC (x + 1) (FOXM1 NM_202002): 2.977
L2abs (Cpd-DMSO) (FOXM1 NM_202002): 11.95
abs (Cpd-DMSO) (FOXM1 NM_202002): 3953 iFPM
amp FC (x + 1) (FOXM1 NM_202002): 7.87
ave Cpd (FOXM1 NM_202002): 4527 iFPM
FC (x + 1) (FOXM1 NM_001243088): 0.7976
L2FC (x + 1) (FOXM1 NM_001243088): −0.326
L2abs (Cpd-DMSO) (FOXM1 NM_001243088): 7.78
abs (Cpd-DMSO) (FOXM1 NM_001243088): 220 iFPM
amp FC (x + 1) (FOXM1 NM_001243088): 1.25
ave Cpd (FOXM1 NM_001243088): 867 iFPM
FC (x + 1) (FOXM1 NM_001243089): 1.4771
L2FC (x + 1) (FOXM1 NM_001243089): 0.563
L2abs (Cpd-DMSO) (FOXM1 NM_001243089): 7.89
abs (Cpd-DMSO) (FOXM1 NM_001243089): 238 iFPM
amp FC (x + 1) (FOXM1 NM_001243089): 1.48
ave Cpd (FOXM1 NM_001243089): 735 iFPM
FC (x + 1) (FYN AY429536): 0.7603
L2FC (x + 1) (FYN AY429536): −0.395
